Measured values reported in the supplement of paper PMC3334620.
Over roughly 33,000 sequences, “E-score (-0.5 to 0.5)” has its median near -0.016; the highest 2% begin near 0.3. Some of the results follow.

What follows are sequences tested against T1, Yer184c (UniProt P39961) (assay: PBM E-score (8-mer binding enrichment) (E-score (-0.5 to 0.5)); higher = stronger / more preferred TF binding). Details: protein concentration: 100 nM; construct: GST-full length.
T1 sequence: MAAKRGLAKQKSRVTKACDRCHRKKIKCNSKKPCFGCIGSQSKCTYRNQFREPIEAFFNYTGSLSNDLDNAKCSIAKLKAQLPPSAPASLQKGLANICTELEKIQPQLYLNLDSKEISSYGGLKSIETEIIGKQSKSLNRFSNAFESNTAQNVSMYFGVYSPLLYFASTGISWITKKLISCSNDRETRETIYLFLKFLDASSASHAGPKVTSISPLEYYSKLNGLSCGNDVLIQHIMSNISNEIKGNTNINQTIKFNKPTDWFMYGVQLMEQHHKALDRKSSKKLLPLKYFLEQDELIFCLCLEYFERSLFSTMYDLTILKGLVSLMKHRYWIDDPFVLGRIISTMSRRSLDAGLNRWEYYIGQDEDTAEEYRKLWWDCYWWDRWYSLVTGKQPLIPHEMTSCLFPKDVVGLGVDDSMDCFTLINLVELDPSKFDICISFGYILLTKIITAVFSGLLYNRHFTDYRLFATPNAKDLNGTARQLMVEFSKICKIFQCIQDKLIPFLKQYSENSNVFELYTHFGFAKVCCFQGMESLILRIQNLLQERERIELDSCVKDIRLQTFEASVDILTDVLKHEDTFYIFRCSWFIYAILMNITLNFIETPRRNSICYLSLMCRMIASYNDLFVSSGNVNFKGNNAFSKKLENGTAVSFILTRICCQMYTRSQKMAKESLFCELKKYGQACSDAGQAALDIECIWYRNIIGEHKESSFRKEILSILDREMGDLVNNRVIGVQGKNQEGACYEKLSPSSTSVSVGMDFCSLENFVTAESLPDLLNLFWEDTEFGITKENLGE
How it was run: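 Using PURExpress in vitro transcription/translation, GST-tagged yeast transcription factors were made in full-length or DNA-binding-domain form. These were applied at about 100-200 nM to double-stranded universal all-10-mer Agilent arrays, and bound protein was detected with fluorescent anti-GST. Scans were normalised with masliner before the Universal PBM Analysis Suite assigned E-scores to ungapped eight-base words pooled with their reverse complements.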

Row | Sequence | PBM E-score
1 | CCATTGGG | -0.339
2 | ATTTCAAG | 0.101
3 | AAGAGAGA | -0.156
4 | GCCGGTAC | 0.229
5 | GTATACAA | 0.125
6 | GCGCATCC | -0.126
7 | AATTCCAG | 0.104
8 | AATTTAAG | 0.148
9 | CATCCTCA | -0.063
10 | CAGTGATA | 0.0747
11 | GAATACAA | 0.18
12 | GCGAAAGA | -0.0514
13 | AGCGAAAT | 0.12
14 | GACAAAAA | 0.333
15 | CGTTGCGC | 0.00917
16 | ATTGGCTC | -0.0143
17 | CGAAGGTC | -0.0244
18 | ATCGGGGG | -0.2
19 | ACGCCCTC | -0.12
20 | ATACTTGG | -0.081
21 | GGGGAGTA | -0.154
22 | ATCTATGG | -0.151
23 | AATGGGTG | -0.178
24 | AAAGGCCG | 0.108
25 | GTGTCAAA | 0.124

Row | Sequence | PBM E-score
26 | ACGAGACA | -0.0635
27 | ACTGTTCT | -0.0108
28 | ATGAATTA | 0.145
29 | CCTACGTC | -0.185
30 | CATTAACC | 0.18
31 | ATCAGTCG | 0.00418
32 | ATTCACTC | 0.0953
33 | AAAACCAA | 0.106
34 | CATTCCCG | 0.232
35 | AGTAGGTC | -0.225
36 | AGGTCCCA | -0.315
37 | CCAGGTGC | -0.0471
38 | AGTAGGAA | -0.182
39 | CGGGGGAA | -0.0247
40 | CCGGTCCA | 0.0407
41 | AGCTTAGG | -0.0812
42 | ACCTAGAC | -0.0786
43 | CAGGTCCG | 0.0843
44 | CTAGTTCC | 0.216
45 | CTCCAAAC | -0.0322
46 | CACGTTTA | 0.073
47 | CTCACCTA | -0.0467
48 | GGTGTGCA | -0.179
49 | TACTCCTA | -0.142
50 | GTGAACCA | 0.0475

Row | Sequence | PBM E-score
51 | ACCTCGAT | -0.0464
52 | AAGACAGG | -0.0549
53 | GAGAGTCC | -0.292
54 | CTTTATGA | -0.0202
55 | CCGCGAAG | -0.0265
56 | AATTGTAG | 0.199
57 | AAAAGCGG | -0.054
58 | CGACGCCA | -0.214
59 | AGTGTCCA | 0.147
60 | AGAACTGC | -0.0235
61 | GACAGTTA | -0.0423
62 | AGATCACG | 0.0167
63 | TCCGCGAA | 0.234
64 | AAATAAAG | 0.045
65 | TCACTAAA | 0.0522
66 | AGCACAGG | -0.131
67 | CGACTAAA | -0.0185
68 | ATCACGAA | -0.00673
69 | AATTGGAC | 0.105
70 | CCATGCGC | -0.166
71 | GGCTACGA | 0.0596
72 | ACGCAGTC | -0.253
73 | AGGACCCA | -0.317
74 | CATCATCC | -0.154
75 | AATGTACA | 0.107

Row | Sequence | PBM E-score
76 | CCTAGTAA | -0.0933
77 | AACTATAG | -0.0416
78 | GGTGCACC | -0.118
79 | CAGAATCA | 0.0879
80 | CTCGACCA | -0.164
81 | AAACGGAT | 0.313
82 | GCACTTAA | 0.201
83 | GCCGAATA | 0.361
84 | ACCTGACT | 0.113
85 | ATTGCTCG | 0.0241
86 | CCGTCTAC | 0.0672
87 | CTTTCAAA | 0.248
88 | CACGCCTC | -0.0955
89 | CCGAGGCA | 0.194
90 | ATTGGTGG | -0.0975
91 | ACGTACAT | 0.0376
92 | GTCATAGA | -0.0289
93 | CCGTGAAG | -0.0231
94 | GTTCTTAA | 0.0672
95 | CTTTCTGC | 0.0505
96 | CTTAATCC | 0.0657
97 | CATCGGTA | 0.154
98 | GGGGTGAA | -0.16
99 | GCAGTCCC | -0.222
100 | AAGTCACG | 0.0266

Row | Sequence | PBM E-score
101 | ATAATCCC | -0.0945
102 | CAAAATCC | 0.118
103 | ATAACCAA | 0.0514
104 | AGCCACAA | 0.126
105 | GAAGACAC | -0.00908
106 | CCGATGGA | 0.129
107 | CGTTTAAA | 0.073
108 | AGTTTAGC | -0.101
109 | CAGTTTAC | -0.0254
110 | AATGCACG | 0.024
111 | GACCTCGC | -0.137
112 | GAACTCGA | 0.0578
113 | AGAAAAGA | 0.00442
114 | CACCAATG | -0.145
115 | AGAGTCGG | 0.0672
116 | TCTACGCA | 0.0652
117 | TCTAAGCA | -0.101
118 | AATAGTGG | -0.0535
119 | AAAAATCT | 0.219
120 | GCAACCGA | 0.0827
121 | GGATGTGA | 0.0899
122 | AACGAGGA | 0.0248
123 | GAACCCGC | -0.101
124 | CGGTCGGC | 0.161
125 | AGAGTTAA | 0.0684

Row | Sequence | PBM E-score
126 | GGAATTCC | 0.125
127 | AACCCGTG | -0.262
128 | AACTTGCC | 0.00508
129 | CGAAGTTC | 0.166
130 | ATGCCTAC | -0.336
131 | GTTTGTCA | 0.0311
132 | AGAATTAG | -0.00946
133 | TGAAGCAA | 0.0403
134 | CCTGACTA | 0.0172
135 | ATAATCTC | 0.128
136 | GGTCTTTA | 0.0223
137 | ATGCGAAC | 0.0436
138 | ATCGTTAG | 0.102
139 | AATCGAGA | -0.0614
140 | CCGCGCTC | 0.0785
141 | AACCTGCT | -0.0846
142 | CATTTACG | -0.0376
143 | CGTAGTAG | 0.102
144 | ATACGGAG | 0.123
145 | ATTTCGAG | 0.162
146 | AATAGCAA | 0.205
147 | GAATCGCA | -0.163
148 | CGTAGCGC | -0.233
149 | GCTTCTTA | 0.175
150 | ATGCGTTA | -0.0382

Row | Sequence | PBM E-score
151 | AAAAGCAA | 0.146
152 | ATTGGTAG | -0.0488
153 | ATCCCGAC | 0.158
154 | GGTAAGTA | 0.0129
155 | GCCGTAGA | 0.322
156 | ACCGATAC | 0.127
157 | ACAAGACA | 0.00551
158 | AGGGGCAG | -0.225
159 | CATTTGCG | 0.165
160 | CTAGCCAA | 0.0566
161 | AGTGCGAA | -0.0968
162 | AATACTCT | 0.0821
163 | ATCCCTCA | -0.137
164 | AGAATCTC | -0.109
165 | TACGTTAA | -0.0987
166 | CGTACCCA | -0.182
167 | GCTCATTA | 0.0403
168 | ATTACGGC | 0.216
169 | GTTGGAAA | 0.0279
170 | ATAATTTA | 0.205
171 | ACGTCCAG | -0.246
172 | AGAAGACT | -0.277

Five consecutive entries from above, quoted:
Row | Sequence | PBM E-score
38 | AGTAGGAA | -0.182
39 | CGGGGGAA | -0.0247
40 | CCGGTCCA | 0.0407
41 | AGCTTAGG | -0.0812
42 | ACCTAGAC | -0.0786

Individual results from above.
CTAGCCAA | PBM E-score: 0.0566
ACCGATAC | PBM E-score: 0.127
GGTAAGTA | PBM E-score: 0.0129
CATTTGCG | PBM E-score: 0.165
CGTACCCA | PBM E-score: -0.182
